US20210244762A1 (AUTOLUS, published 2021)
These are yes or no findings as the source states them, for the method shown. Some binding calls cover weakened binding; strength is not graded here.

Sequences of proteins named here, by UniProt entry; tags and fusion partners are left off. A change or cut given only in a name is not applied to a line headed by its entry.
UniProt P37173: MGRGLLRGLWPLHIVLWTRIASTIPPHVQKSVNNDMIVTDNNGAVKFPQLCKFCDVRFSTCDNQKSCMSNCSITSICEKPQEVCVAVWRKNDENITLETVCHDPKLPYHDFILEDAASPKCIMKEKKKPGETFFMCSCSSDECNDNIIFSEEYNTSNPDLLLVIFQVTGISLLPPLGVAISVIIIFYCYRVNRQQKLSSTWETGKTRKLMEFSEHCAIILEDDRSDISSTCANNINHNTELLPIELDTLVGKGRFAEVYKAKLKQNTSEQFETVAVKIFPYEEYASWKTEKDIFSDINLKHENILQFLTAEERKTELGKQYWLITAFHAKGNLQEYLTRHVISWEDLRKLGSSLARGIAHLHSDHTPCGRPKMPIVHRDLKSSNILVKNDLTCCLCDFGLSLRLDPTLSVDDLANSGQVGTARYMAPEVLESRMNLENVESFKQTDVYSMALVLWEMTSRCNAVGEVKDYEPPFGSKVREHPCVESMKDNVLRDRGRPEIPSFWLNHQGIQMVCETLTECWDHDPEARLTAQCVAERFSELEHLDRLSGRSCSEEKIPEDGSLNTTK

Tests used:
[1] = target: Recombinant TGFbRII-Fc protein (R&D systems) (human) (UniProt P37173); assay: titration ELISA, TGFbRII-Fc coated at 1 µg/ml, dAb from 10 µg/ml two-fold, anti-c-Myc-HRP
[2] = target: Recombinant TGFbRII-Fc protein (R&D systems) (human) (UniProt P37173); assay: titration ELISA on plates coated with TGFbRII-Fc at 1 µg/ml; His-purified dAb in two-fold dilutions from 10 µg/ml; detection with anti-C-Myc-HRP

binding [1]: binds
binding [2]: binds
B1: anti-TGFβRII single domain antibody (dAb) clone H3 (VHH)
VHH: QVQLQQSGGGLVQAGGSLRLACAASGRSFSIYGITWFRQAPGKEREFVAAITGSGLTTNYADSVKGRFTISRDNAKNMVYLQLNSLKPDDTAVYYCAATRAYSGYYGENPTRYAYWGQGTQVTVS
notes: H3 is the one clone not 'related' to the other three; also called dAb H3; anti-TGFbRII VHH H3
